The values below come from publication PMC12040169 (PLOS Biology, 2025).

SMILES strings stand for the structures. Some of the results follow.

For the assay, the system named is T1, CTL2-GFP (C. trachomatis L2/434/Bu, GFP-expressing).
T1 construct: L2/434/Bu, GFP-expressing
Further details: species or system HeLa; Intracellular C. trachomatis growth in HeLa cells, bulk GFP fluorescence relative to DMSO. The conditions noted are these: bulk GFP, single well; 28.5 h, 10 µM; inhibitor.
In the case of `Cc1cc2cc(F)ccc2n1CCCN1CCN(c2ccncc2)CC1` [CBK039119G], the “% of control remaining” value came to 125.445%. With `CCNC(=S)NC1CC[C@@]2(C3=CC=CC4C=CC=CC34)CCN(C)[C@H]2C1` (stereo partly shown) [CBK003596C], the “% of control remaining” value was found to be 137.088%. With `O=C(NC1CCCCC1)C1CCCN(C(=O)NCc2ccccn2)C1` (stereo not shown) [CBK305814] the figure was 100.415%. Turning to `CCc1ccc2oc(-c3ccc(NC(=O)COc4ccc(Cl)cc4Cl)cc3O)nc2c1` [CBK263424], the “% of control remaining” value is given as 113.342%. With `CCc1nc(-c2ccc(C)c(S(=O)(=O)N3CCN(c4ccccc4)CC3)c2)no1` [CBK294434], the “% of control remaining” value stood at 154.995%. Consider `O=C(O)c1ccc(NS(=O)(=O)c2ccc(C(F)(F)F)cc2[N+](=O)[O-])cc1` [CBK034063], for which the “% of control remaining” value stood at 107.598%. In the case of `O=C(O)c1ccc(N2C(=O)CC(S/C(=N\c3ccccc3)Nc3ccccc3)C2=O)cc1` (stereo not shown) [CBK262191], the “% of control remaining” value was 91.4257%.

Turning to `CCNC(=S)NS(=O)(=O)c1ccc(C)cc1` [CBK288452], the “% of control remaining” value worked out at 140.878%. Consider `O=C(c1ccnc2ccccc12)N1CCc2ccccc21` [CBK200283], for which the “% of control remaining” value is given as 104.412%. `Cc1ccc(C(=O)N2CC(=O)N(CCO)C2)cc1` [CBK045864]: the “% of control remaining” value was 106.454%. With `CCC(=O)Nc1ccc(C(=O)Nc2ccc(S(=O)(=O)N3CCCCC3)cc2)cc1` [CBK269549] the figure was 107.033%; with `O=c1n(CCCNCc2ccc(Cl)cc2Cl)nc2n1CCCC2` [CBK305382], 133.642%; with `N#CCCCN1CCC(Oc2nccnc2OCc2cc(Cl)cc(Cl)c2)CC1` [CBK153634], 105.686%. For the compound `CC(C)n1c(=O)n(CCN2CCCCC2)c2cccnc21` [CBK283932], the “% of control remaining” value stood at 128.32%. Regarding `Nc1nc(N)nc(Cn2c(-c3nonc3N)nc3ccccc32)n1` [CBK263072], the “% of control remaining” value was 100%.

Turning to `CCCn1ncc(CN2CCCC(c3cc4cccnc4[nH]3)C2)c1C` (stereo not shown) [CBK284957], the “% of control remaining” value is 85.3522%. Take `COc1ccc(Oc2cncc(OC3CCN(CC(=O)Nc4c(C)cccc4C)C3)n2)cc1OC` (stereo not shown) [CBK084403]: the “% of control remaining” value came to 105.026%. With `CC(=O)N1CCc2cc(C(=O)CN3CCC(c4ccccc4)C3)ccc21` (stereo not shown) [CBK282931] the figure was 100.76%; with `CSc1nc(SCC(=O)N(c2ccccc2)c2ccccc2)c2c3c(sc2n1)CCC3` [CBK267715], 127.662%. With `O=C(O)C1CCCN1S(=O)(=O)c1ccc(Cl)c(Cl)c1` (stereo not shown) [CBK217856] the figure was 124.835%. With `COc1ccccc1CC(=O)NCCC(=O)N1CCN(c2ccc(F)cc2)CC1` [CBK298318] the figure was 146.644%; with `Cc1csc(C(=O)N2CCCC(c3cc(O)cc(C)n3)C2)c1` (stereo not shown) [CBK283423], 133.64%; with `Fc1ccccc1CN1CCN(Cc2ccccn2)CC1` [CBK265194G], 104.634%.

As for `CCOC(=O)C1CCN(S(=O)(=O)c2cccs2)CC1` [CBK051137], the “% of control remaining” value amounted to 115.641%.

Take `Cc1cc(COc2nccnc2N2CCN(CC3CCCCC3)CC2)no1` [CBK084205]: the “% of control remaining” value came out at 111.664%. Turning to `CC(=O)Nc1cccc(-c2cnc(N)c(N3CCC(C(=O)O)CC3)n2)c1` [CBK063657], the “% of control remaining” value is reported as 102.588%. Turning to `C=C(C)Cn1c(SCC(C)C)nnc1-c1ccccc1OC` [CBK200071], the “% of control remaining” value amounted to 130.515%. `O=C(c1ccco1)N1CCN(c2cc(-c3cc4ccccc4o3)ncn2)CC1` [CBK091114]: the “% of control remaining” value amounted to 175.233%. For `COCCNC(=O)c1cc(-c2ccc(C)cc2)nc2c1cnn2C(C)C` [CBK305033], the “% of control remaining” value was determined as 99.9237%. For the compound `COC(=O)Nc1sc2c(c1C(=O)N1CCOCC1)CCC(C)C2` (stereo not shown) [CBK307413], the “% of control remaining” value is reported as 138.799%. As for `Cc1ccc(-c2cc(C(=O)NCc3ccc(F)cc3Cl)n[nH]2)cc1` [CBK288102], the “% of control remaining” value is 130.324%. The value for `O=C(O)CC1C(=O)NCCN1Cc1ccc(-c2ccccc2)cc1` (stereo not shown) [CBK269812] was 106.96%; that for `O=C1CC2(CCC3C(C(=O)NC4CCCC4)C32)Oc2ccccc21` (stereo not shown) [CBK284922] was 119.447%.

As to `O=[N+]([O-])c1cc2c(cc1CN1CCN(Cc3ccccc3)CC1)OCO2` [CBK261548], the “% of control remaining” value came out at 100%. In the case of `COc1cc(OC)cc(C(=O)Nc2nnc(C(F)(F)F)s2)c1` [CBK099828], the “% of control remaining” value is listed as 98.2646%. `CC(NC(=O)c1cc(-c2ccccc2)nc2ccccc12)c1cccc(S(N)(=O)=O)c1` (stereo not shown) [CBK298285]: the “% of control remaining” value was 135.526%. In the case of `O=C(NC1CCCOC1)c1cc(-c2cccs2)no1` (stereo not shown) [CBK282565], the “% of control remaining” value came out at 122.617%. For the compound `O=C(Nc1ccc2ncccc2c1)c1ccc(OC(F)(F)F)cc1` [CBK159815], the “% of control remaining” value turned out to be 103.461%. On to `N#Cc1ccc(C(=O)N2Cc3nc[nH]c3C[C@H]2c2nc(-c3ccncc3)no2)cc1` [CBK288963], for which the “% of control remaining” value stood at 92.6311%. As to `CC1CCN(Cc2c(C3CCNCC3)[nH]c3ncccc23)CC1` [CBK285022], the “% of control remaining” value is 109.786%. In the case of `O=C(Nc1ccncc1)c1ccc(N2C(=O)c3ccccc3C2=O)cc1` [CBK287803], the “% of control remaining” value was found to be 90.7269%. With `COc1ccc(CCOc2cnc(-c3ccccc3)c(N)n2)cc1` [CBK145065] the figure was 85.1249%.

Consider `O=C(NC1CCN(c2ncccn2)CC1)c1cccnc1O` [CBK297739], for which the “% of control remaining” value was 161.613%.

Take `CN(C)c1cccc(C(=O)Nc2ccccc2N2CCOCC2)c1` [CBK295184]: the “% of control remaining” value was determined as 105.031%. For `COc1ccc([C@@]23CC[C@@H](NC(=O)N(C)c4ccc(Cl)cc4)C[C@@H]2N(C)CC3)cc1OC` [CBK045682T], the “% of control remaining” value is on record as 119.608%. Take `O=C(Nc1ccc(C(F)(F)F)cc1)c1cc(Br)cnc1NCc1cccnc1` [CBK076419]: the “% of control remaining” value is reported as 96.3289%.

For `Cc1cc(C(=O)Nc2nc(Cc3n[nH]c(=S)n3C)cs2)sc1C` [CBK296687], the “% of control remaining” value stood at 127.562%. In the case of `Cc1nc2n(c(=O)c1CCSc1ccccc1C(=O)O)CCCC2` [CBK286818], the “% of control remaining” value was determined as 147.55%. As for `CCCc1[nH]nc(O)c1Cc1ccc(C(C)C)cc1` [CBK075033], the “% of control remaining” value worked out at 76.9161%. Turning to `CCC(NC(=O)CCc1cc2n(n1)CCNC2)c1cn2cccnc2n1` (stereo not shown) [CBK307090], the “% of control remaining” value was 123.606%. Regarding `N#Cc1ccccc1NC(=O)C(CC(=O)O)NCc1ccccc1` (stereo not shown) [CBK286907], the “% of control remaining” value turned out to be 164.417%. As for `CCN(CCO)C(=O)NC1CCCc2c1cnn2Cc1ccccc1` (stereo not shown) [CBK305277], the “% of control remaining” value was found to be 108.192%. Take `CC1CN(C(=O)c2ccccc2-c2ccccc2C(=O)O)CC(C)O1` (stereo not shown) [CBK286577]: the “% of control remaining” value is 111.707%. `O=[N+]([O-])c1cc(-c2nnc(-c3ccccc3)o2)ccc1-n1c(-c2ccccc2)nnc1-c1ccccc1` [CBK267341]: the “% of control remaining” value is 141.363%. In the case of `COc1ccc(/C(C)=N\NC(=O)c2cccc(Br)c2)cc1` [CBK261612], the “% of control remaining” value amounted to 96.3147%. As for `CC(NC(=O)c1cnc(-c2cccc(C(F)(F)F)c2)c(-c2ccncc2)c1)c1ccc(F)cc1` (stereo not shown) [CBK037556], the “% of control remaining” value is on record as 208.146%.

As to `O=C(Cc1ccc(Br)cc1)N1CCC(Cc2ccccc2)CC1` [CBK058493], the “% of control remaining” value is listed as 106.753%. On to `Cc1ccc(C)c(CC(=O)N(C)C2CCN(C3CCOCC3)CC2)c1` [CBK304964], for which the “% of control remaining” value was 148.074%. Regarding `O=C1CC(c2noc(-c3ccncc3)n2)CN1c1ccccc1` (stereo not shown) [CBK288043], the “% of control remaining” value came to 127.383%. In the case of `C/C(=N\NC(=O)C1CC1)c1ccc(C)cc1` [CBK016047], the “% of control remaining” value amounted to 127.136%.

As for `O=C(CN(c1ccccc1F)S(=O)(=O)c1ccccc1)Nc1ccccc1C(=O)O` [CBK263999], the “% of control remaining” value is reported as 103.221%. For the compound `Clc1ccc(CN2CCC(Oc3cncc(OCc4cccnc4)n3)C2)cc1` (stereo not shown) [CBK084451], the “% of control remaining” value was found to be 92.7973%. Regarding `O=C(NCC(O)COc1ccccc1)c1cnn2c(-c3ccccc3)ccnc12` (stereo not shown) [CBK298320], the “% of control remaining” value is listed as 130.889%. For the compound `COc1cc2c(cc1NC(=O)C/C(C)=N/NC(=O)c1ccoc1C)oc1ccccc12` [CBK262953], the “% of control remaining” value was 87.7063%. As to `O=C(O)C1CCCN(C(=O)NCCOc2ccccc2)C1` (stereo not shown) [CBK161366], the “% of control remaining” value is recorded as 118.31%. With `O=C(CC1Nc2ccccc2NC1=O)Nc1cccc(C(=O)O)c1` (stereo not shown) [CBK263155] the figure was 107.938%. Turning to `CC(Oc1ccc(Cl)cc1)C(=O)Nc1ncccn1` (stereo not shown) [CBK288206], the “% of control remaining” value was 111.118%.

On to `NS(=O)(=O)c1ccc(CCNC(=O)c2ccc3c(c2)OCCO3)cc1` [CBK268128], for which the “% of control remaining” value stood at 99.6143%. On to `COC(=O)c1sc2ncccc2c1NS(=O)(=O)c1ccc(C(F)(F)F)cc1[N+](=O)[O-]` [CBK049969], for which the “% of control remaining” value amounted to 101.121%. Regarding `Cc1nc2c(c(=O)c3ccccc3n2C)c(=O)n1Cc1ccco1` [CBK287776], the “% of control remaining” value amounted to 107.144%. As to `O=C(Cc1ccccc1F)NCCn1nc2c(cc1=O)CCCCC2` [CBK284519], the “% of control remaining” value was found to be 80.3647%. For the compound `NC(=O)COc1ccc(CNC(=O)CN2CCc3ccccc32)cc1` [CBK306330], the “% of control remaining” value was determined as 135.621%. `Cc1nc(C(F)(F)F)ccc1C(=O)N(C)CCN1CCCCC1` [CBK281917]: the “% of control remaining” value is recorded as 149.457%. As to `CCc1n[nH]c(C(=O)N2CCc3ncc(Cl)cc3C2)c1C` [CBK284856], the “% of control remaining” value stood at 91.2065%. Take `CCC(CO)Nc1nc(-c2ccc(O)cc2)cn2ccnc12` (stereo not shown) [CBK037471]: the “% of control remaining” value was found to be 107.633%.

Take `CCc1cc(OCCCSc2nc(C)cc(O)n2)ccc1Cl` [CBK267364]: the “% of control remaining” value came out at 117.567%. `O=C(CSCc1nc2ccccc2[nH]1)Nc1cccc(C(F)(F)F)c1` [CBK268474]: the “% of control remaining” value is 102.244%. Take `CCOc1ccc(-c2cncc(Nc3cccc(C(F)(F)F)c3)n2)cc1` [CBK065798]: the “% of control remaining” value worked out at 204.641%. With `COc1ccc(C(=O)CCN(C)CC(=O)O)cc1` [CBK287227] the figure was 133.021%.
